According to the supplement of paper PMC10735217:
Where a name gives a salt, the structure may show the parent alone. The list shows a part of the results. This data set is noisy: repeats of one test often differ as much as different tests do.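 In a drug-repurposing library screen, luminescence reads luciferase driven by eight TEAD-binding elements, stably integrated into human kidney-derived cells. Compounds scoring over five robust Z scores above the plate mean are called hits.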

System: HEK293A TEAD-LUC reporter
Test: TEAD-luciferase reporter activity (YAP activation), robust Z score vs plate; higher = stronger YAP/TEAD activation
Details: 24 h

| SMILES | TEAD-luciferase reporter activity (compound concentration: 200 nM) | TEAD-luciferase reporter activity (compound concentration: 2 uM) | TEAD-luciferase reporter activity (compound concentration: 10 uM) |
| --- | --- | --- | --- |
| Cc1cc2c(cc1-c1cc(/C=C3/SC(=O)NC3=O)ccc1OC(F)(F)F)C(C)(C)CCC2(C)C | inactive: -1.65 | inactive: -1.17 | inactive: 2.05 |
| FC(F)(F)c1cccc(C2=CCN(CCc3ccc(-c4ccccc4)cc3)CC2)c1 | inactive: 3.19 | inactive: -1.23 | inactive: 3.17 |
| O=C(NC1CN2CCC1CC2)c1ccc(Cl)cc1 (configuration not stated) | inactive: 1.49 | inactive: -0.838 | inactive: -0.734 |
| O=C(C1CCCN1C(=O)c1ccc(C(F)(F)F)cc1)N1CCC(N2CCOCC2=O)CC1 (configuration not stated) | inactive: -1.09 |  | inactive: -0.0776 |
| CC(C)OC(=O)Nc1cccc(Cl)c1 [Chlorpropham] | inactive: 0.961 | inactive: 1.75 | inactive: -0.581 |
| C[C@]12CC[C@H](O)CC1=CC(=O)[C@@H]1[C@@H]2CC[C@]2(C)C(=O)CC[C@@H]12 | inactive: 0.679 | inactive: -1.11 | inactive: 0.0128 |
| CCCNCCc1ccccc1 | inactive: 1.03 | inactive: 0.266 | active: 5.56 |
| COc1ccc(C(C)C)cc1CN[C@@H]1C2CCN(CC2)[C@H]1C(c1ccccc1)c1ccccc1 | inactive: 0.115 | inactive: 0.0669 | inactive: -0.299 |
| COP(=S)(OC)Oc1ccc(SC)c(C)c1 [Fenthion] | inactive: 0.182 | inactive: -0.792 | inactive: -0.609 |
| Cc1ccc([C@@]2(O)C(=O)O[C@@H]3[C@@H](O)CO[C@@]32O)o1 [methoxatone] | inactive: -0.817 | inactive: 1.27 | inactive: -1.73 |
| CC(=O)OC1CC[C@H]2[C@@H]3CC[C@H]4C/C(=N/Oc5ccc([N+](=O)[O-])cc5)C(Cl)C[C@]4(C)[C@H]3CC[C@]12C (some centres not stated) | inactive: -0.252 | inactive: 3.87 | inactive: 0.535 |
| CN1C(=O)C(O)N=C(c2ccccc2Cl)c2cc(Cl)ccc21 (configuration not stated) [Lormetazepam] | inactive: -0.56 | inactive: -0.579 | inactive: -0.882 |
| CCN1CCN(/C=C2\N=C3CN=C(c4ccccc4Cl)c4cc([N+](=O)[O-])ccc4N3C2=O)CC1 | inactive: -0.99 | inactive: 0.746 | inactive: 1.93 |
| COc1ccc(/C=C\c2cc(OC)c(OC)c(OC)c2)cc1N | active: 9.65 | inactive: 0.26 | active: 6.39 |
| O=C(C1CCCN1C(=O)c1cccc(Cl)c1)N1CCC(N2Cc3ccccc3C2=O)CC1 (configuration not stated) | inactive: -0.353 |  | inactive: 1.22 |
| COC(=O)CNC(=O)C(C)(C)NC(=O)c1cc2c(n(CC3CCCCC3)c1=O)CCCCCC2 | inactive: 1.04 | inactive: 0.213 | inactive: -0.703 |
| CCNC(=O)c1nc(CN(C)C)n(-c2ccc(Cl)cc2C(=O)c2ccccc2Cl)n1 | inactive: -0.271 | inactive: 3.97 | inactive: 4.2 |
| CN1C[C@H](CNC(=O)OCc2ccccc2)C[C@@H]2c3cccc4c3c(cn4C)C[C@H]21 [Metergoline] | inactive: 0.136 |  | inactive: 0.026 |
| CN1C[C@H](CNC(=O)OCc2ccccc2)C[C@@H]2c3cccc4c3c(cn4C)C[C@H]21 [metergoline] |  | inactive: -0.435 |  |

Single entries from the results shown:
Entry for O=C(C1CCCN1C(=O)c1ccc(C(F)(F)F)cc1)N1CCC(N2CCOCC2=O)CC1 (configuration not stated) under TEAD-luciferase reporter activity (compound concentration: 200 nM): inactive: -1.09
Entry for COc1ccc(C(C)C)cc1CN[C@@H]1C2CCN(CC2)[C@H]1C(c1ccccc1)c1ccccc1 under TEAD-luciferase reporter activity (compound concentration: 2 uM): inactive: 0.0669

Additional results follow.

| SMILES | TEAD-luciferase reporter activity (compound concentration: 200 nM) | TEAD-luciferase reporter activity (compound concentration: 2 uM) | TEAD-luciferase reporter activity (compound concentration: 10 uM) |
| --- | --- | --- | --- |
| O=C1CN=C(c2cc([N+](=O)[O-])ccc2Cl)c2cc([N+](=O)[O-])ccc2N1 | inactive: -0.887 | inactive: -0.585 | inactive: 1.8 |
| OCCOc1ccccc1 | inactive: -0.449 | inactive: -1.47 | inactive: -1.09 |
| O=C1CN=C(c2ccc(F)cc2)c2cc(Cl)ccc2N1 | inactive: -0.27 | inactive: -2.22 | inactive: 0.472 |
| N=C1NC(=O)N2CC12 (configuration not stated) |  | inactive: -1.45 |  |
| N=C1NC(=O)N2CC12 (configuration not stated) [Imexon] | inactive: 1.54 |  | inactive: 1.02 |
| Cn1cc2c(NC3=NCCN3)cccc2n1 | inactive: -0.507 | inactive: 0.435 | inactive: 0.608 |
| C=CCC(N)Cc1ccccc1 (configuration not stated) | inactive: 0.34 | inactive: -2 | inactive: -2.01 |
| O=C1CCC(=O)N1C[C@H]1CC[C@H]2CN(c3ncccn3)CCN2C1 [Sunepitron hydrochloride] | inactive: -1.58 | inactive: 4.66 | inactive: 2.73 |
| C[C@@]1(O)[C@H](O)[C@@H](CO)O[C@H]1n1ccc2c(N)ncnc21 | inactive: -0.794 | inactive: -0.011 | inactive: 0.0534 |
| CC[C@H]1C[C@H]2C[C@H]3c4[nH]c5ccccc5c4CCN(C2)C13 [Ibogamine] | inactive: -0.326 | inactive: -1.3 | inactive: 2.43 |
| C[C@]12CC[C@H]3[C@@H](CCC4=CC(=O)C=C[C@@]43C)[C@@H]1CC[C@@H]2OC1=CCCC1 | inactive: -0.379 | inactive: 1.07 | inactive: 1.61 |
| Fc1ccccc1C1=NCC(=S)N(CC(F)(F)F)c2ccc(Cl)cc21 [Quazepam CIV] | inactive: 0.0555 |  | inactive: 0.0455 |
| O=C(O[C@H]1C[N+]2(CCCOc3ccccc3)CCC1CC2)C(O)(c1cccs1)c1cccs1 [aclidinium bromide] | inactive: 0.202 | inactive: -1.29 | inactive: -0.932 |
| CC(C)c1cccc(C(C)C)c1O | inactive: 0.152 |  | inactive: 1.89 |
| CC(C)c1cccc(C(C)C)c1O [propofol phosphate] |  | inactive: -1.33 |  |
| C[N+]1(C)CCCC(OC(=O)C(O)(c2ccccc2)c2ccccc2)C1 (configuration not stated) [Mepenzolate] | inactive: -1.03 | inactive: 3.18 | inactive: 2.33 |
| C=CCN1CC[C@]23c4c5ccc(O)c4O[C@H]2C(=O)CC[C@@]3(O)C1C5 [Naloxon] | inactive: -0.397 | inactive: -1.85 | inactive: -1.15 |
| CN1C[C@H](CO)C[C@@H]2c3cccc4[nH]cc(c34)C[C@H]21 | inactive: -1.01 | inactive: 0.168 | inactive: 0.856 |
| C[C@H](CS(C)(=O)=O)n1ccc2c(C(F)(F)F)c(C#N)ccc21 | inactive: -0.953 | inactive: 1.82 | inactive: 0.237 |
